At least one structure is not confirmed: it was looked up by name or label, or the drawing left a doubt.
System: ovoalbumin-sensitized guinea-pig isolated tracheal rings
Experiment: Inhibition of antigen (ovoalbumin)-induced contraction in ovoalbumin-sensitized guinea-pig isolated tracheal rings (organ bath)
Conditions: summary of Table 1 and FIG. 1
Experimental: Male Dunkin-Hartley guinea-pigs (weighing 380-420 g) from Harlan Ibérica (St. Feliu de Codines, Spain) are used. They are housed, with free access to food and water, in rooms kept at 22±2° C. under a 12 hours light-dark cycle until the start of the experiment.
The animals are sensitised by means of two sessions of aerosolization with a solution of 5 mg/ml of ovoalbumin on days zero and 7 of the study. The aerosolization procedure consists of two 30-s nebulisations (Efbe air brush apparatus) with an interval of 5 minutes with animals maintained in a plexiglass box for 10 minutes since the beginning of the procedure.
Between days 14 to 20 from the beginning of the experiment the animals are euthanised and the tracheal tissue is removed. A single tracheal ring is excised and suspended in an organ bath containing Krebs solution. Once attached to a force isometric transducer, it is submitted to a basal resting tension of 1 g, equilibrated with a mixture a 5% CO2 in O2 and maintained at 37° C.
The preparations are allowed to equilibrate for a period of not less than 60 minutes and then the vehicle or the compound(s) to be tested are added to the bath. […] At this moment ovoalbumin is added (at a final concentration in the bath of 10 μg/ml) to elicit the contractile response which is measured immediately.
The contractile responses measured with a force isometric transducer are expressed in mg.

CCCC1O[C@@H]2C[C@H]3[C@@H]4CCC5=CC(=O)C=C[C@]5(C)[C@H]4[C@@H](O)C[C@]3(C)[C@]2(C(=O)CO)O1 (stereo partly shown) [BUDESONIDE, budesonide]
inhibition of the contractile response to antigen, comparison in words: consistent effect inhibiting the contractile response
